# Assay results from PubChem BioAssay AID1508600 (Functional Genomics Laboratory (NCATS/FGL), 2020).
# The campaign covered roughly 53,000 sequences. About 3,700 (7%) were called active.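 Rule for the calls: active = gene knockdowns whose robust z-score for IL-1 alpha signal is at least 2 or at most -2, so actives lie on both sides; inactive = the rest.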 The list shows a part of the results.
# Test: Components of the Cytosolic LPS Sensing Pathway: Gene Identification via Genome-wide siRNA Screen;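 note: robust z of the log signal after scaling to non-targeting control siRNA wells of the plate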
# Details: RAW264.7 macrophages, IL-1a HTRF, actives lie on both sides, screened at 100 nM (by protocol), cells primed 5 h with Pam3CSK4 first
# In short: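 RAW264.7; siRNA 100 nM final, RNAiMAX, 48h 37 degrees C; Pam3CSK4 5 h; LipidA + TransIT-TKO 24 h; IL-1a HTRF; CellTiter-Glo viability; robust z vs negative-control median.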
row,Sequence,z-score
1,CCUCUUACCGCUUUCAAUATT against Arf1,inactive: -0.688
2,GGAUGAGGAUGUGACCAAGTT against Prokr2,inactive: -0.241
3,GGAGCAAAGCCUGUGAACUTT against Dffa,inactive: 0.905
4,GGUGGCUAUUGAUGAAAACTT against Zfyve19,inactive: -0.813
5,GGUAUUGUGUUUCCCAAACTT against Acsf2,inactive: 0.28
6,GCCUCCUAUAUAAACAUUGTT against Olfr1321,inactive: 1.02
7,GCUUGAUGACUCUAAACCUTT against Runx2,inactive: 1.29
8,AGAUCGUGGACCAUGUGAATT against Nxph4,inactive: -0.842
9,GGCCCGAAACAAGAAAUCCTT against Ikbke,inactive: 0.957
10,GCACCAUGUAUACAAAAGATT against Pcdhb3,inactive: 0.0679
11,GGUUUUGUAGGCAUGCUUGTT against Slc10a3,inactive: -1.38
12,GGCCACAUGUGUGUUCUGATT against Glt1d1,inactive: -1.77
13,CCCUAUAAUUGCCUUAAUATT against Akip1,inactive: 0.765
14,GCUAGAGGAACUAGAACCATT against Mrpl54,inactive: 1.32
15,CGAAAAUAGUGAGGAUUAUTT against Hrnr,inactive: -0.719
16,CCUCACCCUUUCCAAAAAATT against Polr2f,inactive: -1.03
17,GGAUAGUAUACUAGAAGAATT against Mms22l,inactive: -1.4
18,GGGCACAAGUACCAUCUUATT against Lxn,inactive: -0.113
19,GGGUUCAAUGCAGUCAUGATT against Slc25a20,inactive: -1.64
20,GCGAUCAAAAAAGUUGCCUTT against Arhgap44,inactive: -0.387
21,GCUCUCAUGACUCCUUUUATT against Olfr99,inactive: -1.41
22,CCUCAUCGACAUAAUGAUUTT against Samhd1,inactive: -0.0182
23,CGUCUCCUGAACUUAGAAUTT against Rab5if,inactive: -0.322

# Random excerpt: 4 records from the list.
row,Sequence,z-score
11,GGUUUUGUAGGCAUGCUUGTT against Slc10a3,inactive: -1.38
3,GGAGCAAAGCCUGUGAACUTT against Dffa,inactive: 0.905
14,GCUAGAGGAACUAGAACCATT against Mrpl54,inactive: 1.32
7,GCUUGAUGACUCUAAACCUTT against Runx2,inactive: 1.29

# (further entries)

row,Sequence,z-score
1,GCUACAAUCAAAAUUAUGCTT against Defb21,inactive: -1.14
2,GGAAGACUCGGUUCAUCAUTT against Pnliprp1,inactive: 0.884
3,GCUUUGUUAGUGUUAGUCUTT against Lamc1,inactive: -0.322
4,CCAAGCCUAUUCUUAACUUTT against Cxcl3,inactive: 0.445
5,CGUGGUAGUUAAUUGUUCATT against Map3k1,inactive: 1.87
6,GGCCAAUGACCAGACCUUGTT against Hrh1,inactive: 0.309
7,CCGUUUUCGCUUUGAGAAATT against Smarcad1,active: 4.47
8,GGUGGAUUAAGUCUCAAAATT against Pcdhb22,inactive: 0.592
9,GGUAAAGACACAGAGCUGCTT against Cntd1,inactive: 0.202
10,GCACAAGUCCCUACCACUUTT against Birc3,inactive: 0.12
11,GCGUAGAGACAAAGUAGAATT against Gpr141,inactive: 1.8
12,GGAAGUUAUCAACAUAGUUTT against Ern1,inactive: 0.918
13,GCAAUGUUAUUUUCACCAGTT against Slc3a1,inactive: 0.61
14,GCUAUUGGCGAGAAUUAAATT against Smarca1,inactive: -0.0414
15,CGGGUCUAUCGAUUUCUUCTT against Fcna,inactive: 0.0939
16,GGAGCGAUUUCAUUUGGAUTT against Wwc2,inactive: 0.13
17,GGGCAUGUAUAUAAUGUUCTT against Kifc3,inactive: -0.325
18,GGCCAGCUGAAAGAGGUUCTT against Ndufaf5,inactive: 0.0496
19,CCUUAUGGAUUUAGCAUCATT against Lamb3,inactive: 0.917
20,CGGAAUAUAGAAUGAAACCTT against Cd200r3,inactive: 0.731
21,GGUGUCAUUCAACUUGCAUTT against Rnase10,active: -2.55
22,GCUUUUAUUGGCCACCCUGTT against Dennd4b,inactive: 0.0854
23,GAGUCUUCUCUGCCUGUCUTT against Lce3c,inactive: -0.106

row,Sequence,z-score
1,GGACAACGUAGCCUUCGUUTT against Ncln,inactive: -0.562
2,CCCACAAUCUUUUUGUAAATT against Sost,inactive: -0.75
3,CCUUUUGAUGUUGUGACUUTT against Crebl2,inactive: 0.116
4,GGAGCUGAUAAGAAAACUATT against Gbp2,inactive: 0.486
5,GGUGAUUCAGAUAAAAGAGTT against Mbtps1,inactive: 0.265
6,GGCCCUGUUGCUAUGUGUUTT against Map1s,active: 2.06
7,GGCUCAAAGACUGAAUCCCTT against Recql4,inactive: 0.309
8,GGUCAUUUCAAGUGCUAAGTT against Adgra1,active: 2.76
9,GCUGUUUCAGGUAUCUGUCTT against Tcam1,inactive: 0.00576
10,GGUAUUAGCGGAUUGUUACTT against Spg7,inactive: -0.378
11,GGCCUUAGAUGGGAAAUUGTT against Pttg1,inactive: -0.386
12,GGAAGAAGUACCCAUGCAATT against Olfr65,inactive: -0.491
13,CUGUAUGAAGAACUGGAGCTT against Cracr2b,inactive: 0.659
14,GCACCAAUCAAUGAGGAGATT against Was,inactive: -0.785
15,GGCUGAUGAUACUUAAACATT against Vmn1r83,inactive: -1.26
16,GGUUAGAGUGCCUUUCCUUTT against Ctxn1,inactive: -0.226
17,GGCACACUCACUCCUUUGATT against Mis18bp1,inactive: 0.145
18,GGGUUUCUGAGGUUUAAUUTT against Arhgef3,inactive: 0.0908
19,CCAGAGCUUAUUGAGAUGCTT against Myh4,inactive: -0.475
20,CCUAUGAUUACUUGAACCCTT against Bak1,inactive: 0.803
21,GGUUUCGAUAGGAAUAUGATT against Pkp1,inactive: -0.791
22,GGGUUUUAAGUUUACUGCUTT against Nupr1l,inactive: 1.27
